Among the data in publication PMC5720810 are binding values, retold here.

For assay [1], the target named is T1, TAP-tagged Spt4^T42AS43A (non-phosphorylatable mutant) (S. cerevisiae (BY4741)) (UniProt P32914).
T1 sequence: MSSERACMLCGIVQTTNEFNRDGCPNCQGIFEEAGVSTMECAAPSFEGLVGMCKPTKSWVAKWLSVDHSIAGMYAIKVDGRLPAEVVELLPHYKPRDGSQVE
The assay is described as follows: co-IP; TAP-tagged Spt4 precipitated on rabbit IgG agarose from yeast protein extracts (5 mg), 2-3 h at 4°C, buffer A with 150 mM NaCl washes; cells with or without 0.4 M NaCl for 10 min; Spt5-9myc detected with anti-myc (9E10), RNA Pol II with anti-Rpb1 (8WG16).

In assay [2] the target is T2, TAP-tagged Spt4 (wild type) (S. cerevisiae (BY4741)) (UniProt P32914).
T2 sequence: T1 sequence with A42T, A43S
The assay is described as above.

Positions count from the first letter of the chain named. Results are given in words; binding and its absence hold for the method and conditions named. In cells and extracts the contact can be indirect. Some entries that bind do so weakly or less than the wild type. Tags and fused reporters may be left off the sequences shown.

B1: 9myc-tagged Spt5 (protein, UniProt P27692 1-1063)
chain: MSDNSDTNVSMQDHDQQFADPVVVPQSTDTKDENTSDKDTVDSGNVTTTESTERAESTSNIPPLDGEEKEAKSEPQQPEDNAETAATEQVSSSNGPATDDAQATLNTDSSEANEIVKKEEGSDERKRPREEDTKNSDGDTKDEGDNKDEDDDEDDDDDDDDEDDDDEAPTKRRRQERNRFLDIEAEVSDDEDEDEDEEDSELVREGFITHGDDEDDEASAPGARRDDRLHRQLDQDLNKTSEEDAQRLAKELRERYGRSSSKQYRAAAQDGYVPQRFLLPSVDTATIWGVRCRPGKEKELIRKLLKKKFNLDRAMGKKKLKILSIFQRDNYTGRIYIEAPKQSVIEKFCNGVPDIYISQKLLIPVQELPLLLKPNKSDDVALEEGSYVRIKRGIYKGDLAMVDQISENNLEVMLKIVPRLDYGKFDEIDPTTQQRKSRRPTFAHRAPPQLFNPTMALRLDQANLYKRDDRHFTYKNEDYIDGYLYKSFRIQHVETKNIQPTVEELARFGSKEGAVDLTSVSQSIKKAQAAKVTFQPGDRIEVLNGEQRGSKGIVTRTTKDIATIKLNGFTTPLEFPISTLRKIFEPGDHVTVINGEHQGDAGLVLMVEQGQVTFMSTQTSREVTITANNLSKSIDTTATSSEYALHDIVELSAKNVACIIQAGHDIFKVIDETGKVSTITKGSILSKINTARARVSSVDANGNEIKIGDTIVEKVGSRREGQVLYIQTQQIFVVSKKIVENAGVFVVNPSNVEAVASKDNMLSNKMDLSKMNPEIISKMGPPSSKTFQQPIQSRGGREVALGKTVRIRSAGYKGQLGIVKDVNGDKATVELHSKNKHITIDKHKLTYYNREGGEGITYDELVNRRGRVPQARMGPSYVSAPRNMATGGIAAGAAATSSGLSGGMTPGWSSFDGGKTPAVNAHGGSGGGGVSSWGGASTWGGQGNGGASAWGGAGGGASAWGGQGTGATSTWGGASAWGNKSSWGGASTWASGGESNGAMSTWGGTGDRSAYGGASTWGGNNNNKSTRDGGASAWGNQDDGNRSAWNNQGNKSNYGGNSTWGGH
Consider B1, for which the binding result in assay [1] and in assay [2] was “binds” throughout.
